Test results as given in publication PMC12442307.
These are yes or no findings as the source states them, for the method shown. In cells and extracts the contact can be indirect. Here binding means that the protein was enriched with, or labelled near, the bait; the list need not be complete. Tags and fused reporters may be left off the sequences shown.

B1: SUGP1 (protein, UniProt Q8IWZ8 1-645)
chain: MSLKMDNRDVAGKANRWFGVAPPKSGKMNMNILHQEELIAQKKREIEAKMEQKAKQNQVASPQPPHPGEITNAHNSSCISNKFANDGSFLQQFLKLQKAQTSTDAPTSAPSAPPSTPTPSAGKRSLLISRRTGLGLASLPGPVKSYSHAKQLPVAHRPSVFQSPDEDEEEDYEQWLEIKVSPPEGAETRKVIEKLARFVAEGGPELEKVAMEDYKDNPAFAFLHDKNSREFLYYRKKVAEIRKEAQKSQAASQKVSPPEDEEVKNLAEKLARFIADGGPEVETIALQNNRENQAFSFLYEPNSQGYKYYRQKLEEFRKAKASSTGSFTAPDPGLKRKSPPEALSGSLPPATTCPASSTPAPTIIPAPAAPGKPASAATVKRKRKSRWGPEEDKVELPPAELVQRDVDASPSPLSVQDLKGLGYEKGKPVGLVGVTELSDAQKKQLKEQQEMQQMYDMIMQHKRAMQDMQLLWEKAVQQHQHGYDSDEEVDSELGTWEHQLRRMEMDKTREWAEQLTKMGRGKHFIGDFLPPDELEKFMETFKALKEGREPDYSEYKEFKLTVENIGYQMLMKMGWKEGEGLGSEGQGIKNPVNKGTTTVDGAGFGIDRPAELSKEDDEYEAFRKRMMLAYRFRPNPLNNPRRPYY
B2: RTCB (protein, UniProt Q9Y3I0 1-505)
chain: MSRSYNDELQFLEKINKNCWRIKKGFVPNMQVEGVFYVNDALEKLMFEELRNACRGGGVGGFLPAMKQIGNVAALPGIVHRSIGLPDVHSGYGFAIGNMAAFDMNDPEAVVSPGGVGFDINCGVRLLRTNLDESDVQPVKEQLAQAMFDHIPVGVGSKGVIPMNAKDLEEALEMGVDWSLREGYAWAEDKEHCEEYGRMLQADPNKVSARAKKRGLPQLGTLGAGNHYAEIQVVDEIFNEYAAKKMGIDHKGQVCVMIHSGSRGLGHQVATDALVAMEKAMKRDKIIVNDRQLACARIASPEGQDYLKGMAAAGNYAWVNRSSMTFLTRQAFAKVFNTTPDDLDLHVIYDVSHNIAKVEQHVVDGKERTLLVHRKGSTRAFPPHHPLIAVDYQLTGQPVLIGGTMGTCSYVLTGTEQGMTETFGTTCHGAGRALSRAKSRRNLDFQDVLDKLADMGIAIRVASPKLVMEEAPESYKNVTDVVNTCHDAGISKKAIKLRPIAVIKG
B3: C14orf166 (protein, UniProt Q9Y224 1-244)
chain: MFRRKLTALDYHNPAGFNCKDETEFRNFIVWLEDQKIRHYKIEDRGNLRNIHSSDWPKFFEKYLRDVNCPFKIQDRQEAIDWLLGLAVRLEYGDNAEKYKDLVPDNSKTADNATKNAEPLINLDVNNPDFKAGVMALANLLQIQRHDDYLVMLKAIRILVQERLTQDAVAKANQTKEGLPVALDKHILGFDTGDAVLNEAAQILRLLHIEELRELQTKINEAIVAVQAIIADPKTDHRLGKVGR

Biological target: T1, GFP-CTPS1 (N-terminal GFP-tagged CTP synthetase 1) (human) (UniProt P17812)
T1 sequence: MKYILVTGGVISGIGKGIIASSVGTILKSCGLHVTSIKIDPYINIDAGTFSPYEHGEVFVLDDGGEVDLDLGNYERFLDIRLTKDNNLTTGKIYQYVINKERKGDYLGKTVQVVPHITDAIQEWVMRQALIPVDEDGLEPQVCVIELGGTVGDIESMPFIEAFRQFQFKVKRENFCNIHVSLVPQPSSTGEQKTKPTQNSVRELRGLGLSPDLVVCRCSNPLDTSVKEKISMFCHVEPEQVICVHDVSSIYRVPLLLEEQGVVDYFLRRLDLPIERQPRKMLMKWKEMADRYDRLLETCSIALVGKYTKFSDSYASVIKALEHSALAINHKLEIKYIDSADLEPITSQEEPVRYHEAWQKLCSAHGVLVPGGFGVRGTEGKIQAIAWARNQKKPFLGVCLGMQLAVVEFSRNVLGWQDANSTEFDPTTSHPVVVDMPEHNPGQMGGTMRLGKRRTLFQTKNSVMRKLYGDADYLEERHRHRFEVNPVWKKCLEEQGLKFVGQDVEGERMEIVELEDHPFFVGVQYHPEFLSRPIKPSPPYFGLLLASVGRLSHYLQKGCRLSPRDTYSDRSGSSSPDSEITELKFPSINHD
Test: affinity purification with mass spectrometry; GFP-Trap agarose beads, 90 min, on lysates of CTPS1-KO HEK cells stably expressing GFP-CTPS1, compared with GFP alone; lysis in 20 mM Tris-HCl pH 7.5, 1% NP-40, 300 mM NaCl adjusted to 150 mM; quantitative label-free LC-MS/MS, four replicates

binding	Binder
binds	B1
binds	B2
binds	B3
